The list shows a part of the results.
What was measured:
Assay in all cases: log2 fold change, soluble protein after heating vs DMSO (PISA); higher = thermal stabilisation; K562 lysate, 10 uM; active = over 0.2 and 3.5 SD of the protein, either way, in both replicates (recomputed)
[1] = compound: C1=CC=C(C=C1)[C@H](COC2=CC3=C(C=C2)NC(=O)N3)NC(=O)C4=CC=CN(C4=O)CC5=CC(=C(C=C5)F)F
Outline: (§1)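 Following dounce homogenisation of K562 pellets in PBS pH 7.4 with 1 mM MgCl2, crude extract at 1 mg/mL protein was incubated for 30 min with 10 μM compound. Aliquots were then heated for 3 min over 48°C-58°C and pooled, NP-40 was added to 0.5% at 4°C, and soluble protein was recovered as the supernatant at 21,000xg for 90 min. Channel-sum-equalised TMTpro 16plex LC-MS/MS quantified this protein. Each value, from duplicates, is a log-two fold change in thermal stability relative to solvent controls.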

By UniProt entry, the sequences of proteins in these tests, tags left out. Where a name states a change or a piece, a line headed by the entry shows the natural chain unless it says otherwise.
UniProt P05386, whole entry, looked up: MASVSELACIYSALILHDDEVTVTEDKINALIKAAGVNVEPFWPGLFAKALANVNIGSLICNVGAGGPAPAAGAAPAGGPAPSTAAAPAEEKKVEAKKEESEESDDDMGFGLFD
UniProt Q8N122, whole entry, looked up: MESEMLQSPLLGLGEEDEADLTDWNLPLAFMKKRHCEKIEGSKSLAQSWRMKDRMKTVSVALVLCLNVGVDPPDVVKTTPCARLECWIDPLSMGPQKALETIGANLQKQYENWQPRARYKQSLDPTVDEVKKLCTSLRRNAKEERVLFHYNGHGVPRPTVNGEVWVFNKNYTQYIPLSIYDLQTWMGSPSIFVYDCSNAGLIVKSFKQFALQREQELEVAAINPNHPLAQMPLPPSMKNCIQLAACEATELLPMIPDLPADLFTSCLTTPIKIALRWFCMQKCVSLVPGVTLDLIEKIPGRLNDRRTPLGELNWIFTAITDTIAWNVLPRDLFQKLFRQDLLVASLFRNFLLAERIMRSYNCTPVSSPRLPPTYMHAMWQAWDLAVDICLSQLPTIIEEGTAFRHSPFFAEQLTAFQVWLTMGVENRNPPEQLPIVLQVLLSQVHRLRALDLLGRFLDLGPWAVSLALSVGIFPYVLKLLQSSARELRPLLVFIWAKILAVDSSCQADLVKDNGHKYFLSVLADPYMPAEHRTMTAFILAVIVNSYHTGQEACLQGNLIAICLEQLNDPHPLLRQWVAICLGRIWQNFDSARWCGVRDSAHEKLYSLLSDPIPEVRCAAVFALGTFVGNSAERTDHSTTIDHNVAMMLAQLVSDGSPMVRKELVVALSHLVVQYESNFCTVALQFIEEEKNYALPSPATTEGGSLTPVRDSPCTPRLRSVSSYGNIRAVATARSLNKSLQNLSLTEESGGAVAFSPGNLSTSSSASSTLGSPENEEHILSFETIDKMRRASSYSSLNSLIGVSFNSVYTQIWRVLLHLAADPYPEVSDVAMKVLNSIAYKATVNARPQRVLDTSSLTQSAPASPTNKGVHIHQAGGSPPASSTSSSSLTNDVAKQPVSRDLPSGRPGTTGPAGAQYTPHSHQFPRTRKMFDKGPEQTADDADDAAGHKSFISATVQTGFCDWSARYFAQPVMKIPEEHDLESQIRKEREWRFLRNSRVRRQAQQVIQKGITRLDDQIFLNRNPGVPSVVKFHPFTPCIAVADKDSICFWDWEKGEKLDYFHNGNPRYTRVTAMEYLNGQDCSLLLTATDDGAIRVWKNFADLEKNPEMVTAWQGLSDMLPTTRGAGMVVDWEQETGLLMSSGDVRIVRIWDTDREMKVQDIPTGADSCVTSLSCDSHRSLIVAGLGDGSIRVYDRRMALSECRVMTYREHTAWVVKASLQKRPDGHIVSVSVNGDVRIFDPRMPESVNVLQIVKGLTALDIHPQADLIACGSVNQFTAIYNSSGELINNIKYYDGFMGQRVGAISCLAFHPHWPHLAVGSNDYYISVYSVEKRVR
UniProt Q9UIY3: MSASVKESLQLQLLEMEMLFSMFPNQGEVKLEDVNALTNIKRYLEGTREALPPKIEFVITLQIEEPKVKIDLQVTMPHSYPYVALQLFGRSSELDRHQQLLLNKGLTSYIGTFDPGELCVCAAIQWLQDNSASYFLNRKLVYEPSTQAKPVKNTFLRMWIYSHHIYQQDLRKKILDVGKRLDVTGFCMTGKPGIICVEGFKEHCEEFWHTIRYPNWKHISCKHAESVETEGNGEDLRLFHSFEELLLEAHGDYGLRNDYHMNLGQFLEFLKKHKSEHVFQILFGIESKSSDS
UniProt Q5VT52: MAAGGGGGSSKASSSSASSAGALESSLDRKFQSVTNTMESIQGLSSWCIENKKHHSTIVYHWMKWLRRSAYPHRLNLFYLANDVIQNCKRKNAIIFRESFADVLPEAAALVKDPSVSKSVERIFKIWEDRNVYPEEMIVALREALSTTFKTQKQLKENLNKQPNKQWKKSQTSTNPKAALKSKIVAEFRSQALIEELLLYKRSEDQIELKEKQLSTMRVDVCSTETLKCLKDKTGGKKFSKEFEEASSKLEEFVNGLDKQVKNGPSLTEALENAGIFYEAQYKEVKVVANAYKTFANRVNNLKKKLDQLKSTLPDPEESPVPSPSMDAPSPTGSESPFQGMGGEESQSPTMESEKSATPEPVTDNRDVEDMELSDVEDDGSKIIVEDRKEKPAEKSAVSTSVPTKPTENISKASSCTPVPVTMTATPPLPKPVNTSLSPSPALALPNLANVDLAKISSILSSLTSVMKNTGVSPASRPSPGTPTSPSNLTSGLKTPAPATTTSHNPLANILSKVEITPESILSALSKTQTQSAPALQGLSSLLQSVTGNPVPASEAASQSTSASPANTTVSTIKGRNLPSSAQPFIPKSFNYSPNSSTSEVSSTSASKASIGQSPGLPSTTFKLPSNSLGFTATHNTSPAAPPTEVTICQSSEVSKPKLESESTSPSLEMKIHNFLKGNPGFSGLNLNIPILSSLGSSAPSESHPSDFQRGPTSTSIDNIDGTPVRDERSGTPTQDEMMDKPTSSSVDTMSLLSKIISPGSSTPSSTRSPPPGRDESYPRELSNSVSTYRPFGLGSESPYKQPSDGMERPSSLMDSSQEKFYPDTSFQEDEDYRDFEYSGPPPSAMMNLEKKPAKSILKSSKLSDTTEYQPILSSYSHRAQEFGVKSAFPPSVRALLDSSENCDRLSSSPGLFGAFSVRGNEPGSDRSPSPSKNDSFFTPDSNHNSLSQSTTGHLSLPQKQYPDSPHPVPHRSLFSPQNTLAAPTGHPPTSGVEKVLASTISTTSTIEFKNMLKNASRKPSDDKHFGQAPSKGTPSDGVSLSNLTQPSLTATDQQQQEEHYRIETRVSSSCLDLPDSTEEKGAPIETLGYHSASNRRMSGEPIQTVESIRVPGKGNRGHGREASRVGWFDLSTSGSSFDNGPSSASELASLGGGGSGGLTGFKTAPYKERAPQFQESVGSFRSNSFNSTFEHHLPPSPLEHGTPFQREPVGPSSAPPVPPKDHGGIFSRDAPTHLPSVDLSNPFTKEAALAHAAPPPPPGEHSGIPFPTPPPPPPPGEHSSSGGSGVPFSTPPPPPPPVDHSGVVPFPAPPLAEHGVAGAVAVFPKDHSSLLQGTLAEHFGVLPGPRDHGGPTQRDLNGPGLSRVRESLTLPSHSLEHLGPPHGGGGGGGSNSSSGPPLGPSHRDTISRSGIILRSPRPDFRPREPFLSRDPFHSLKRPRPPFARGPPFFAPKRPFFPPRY
UniProt Q9Y3A4: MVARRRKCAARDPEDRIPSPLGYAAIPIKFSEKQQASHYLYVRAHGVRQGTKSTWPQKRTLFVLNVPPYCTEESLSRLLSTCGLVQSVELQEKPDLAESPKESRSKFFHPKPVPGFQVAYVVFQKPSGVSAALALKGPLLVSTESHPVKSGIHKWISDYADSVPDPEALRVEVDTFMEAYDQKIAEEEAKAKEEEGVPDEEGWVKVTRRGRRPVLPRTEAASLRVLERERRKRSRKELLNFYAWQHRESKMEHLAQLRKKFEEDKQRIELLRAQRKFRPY
UniProt Q96T23: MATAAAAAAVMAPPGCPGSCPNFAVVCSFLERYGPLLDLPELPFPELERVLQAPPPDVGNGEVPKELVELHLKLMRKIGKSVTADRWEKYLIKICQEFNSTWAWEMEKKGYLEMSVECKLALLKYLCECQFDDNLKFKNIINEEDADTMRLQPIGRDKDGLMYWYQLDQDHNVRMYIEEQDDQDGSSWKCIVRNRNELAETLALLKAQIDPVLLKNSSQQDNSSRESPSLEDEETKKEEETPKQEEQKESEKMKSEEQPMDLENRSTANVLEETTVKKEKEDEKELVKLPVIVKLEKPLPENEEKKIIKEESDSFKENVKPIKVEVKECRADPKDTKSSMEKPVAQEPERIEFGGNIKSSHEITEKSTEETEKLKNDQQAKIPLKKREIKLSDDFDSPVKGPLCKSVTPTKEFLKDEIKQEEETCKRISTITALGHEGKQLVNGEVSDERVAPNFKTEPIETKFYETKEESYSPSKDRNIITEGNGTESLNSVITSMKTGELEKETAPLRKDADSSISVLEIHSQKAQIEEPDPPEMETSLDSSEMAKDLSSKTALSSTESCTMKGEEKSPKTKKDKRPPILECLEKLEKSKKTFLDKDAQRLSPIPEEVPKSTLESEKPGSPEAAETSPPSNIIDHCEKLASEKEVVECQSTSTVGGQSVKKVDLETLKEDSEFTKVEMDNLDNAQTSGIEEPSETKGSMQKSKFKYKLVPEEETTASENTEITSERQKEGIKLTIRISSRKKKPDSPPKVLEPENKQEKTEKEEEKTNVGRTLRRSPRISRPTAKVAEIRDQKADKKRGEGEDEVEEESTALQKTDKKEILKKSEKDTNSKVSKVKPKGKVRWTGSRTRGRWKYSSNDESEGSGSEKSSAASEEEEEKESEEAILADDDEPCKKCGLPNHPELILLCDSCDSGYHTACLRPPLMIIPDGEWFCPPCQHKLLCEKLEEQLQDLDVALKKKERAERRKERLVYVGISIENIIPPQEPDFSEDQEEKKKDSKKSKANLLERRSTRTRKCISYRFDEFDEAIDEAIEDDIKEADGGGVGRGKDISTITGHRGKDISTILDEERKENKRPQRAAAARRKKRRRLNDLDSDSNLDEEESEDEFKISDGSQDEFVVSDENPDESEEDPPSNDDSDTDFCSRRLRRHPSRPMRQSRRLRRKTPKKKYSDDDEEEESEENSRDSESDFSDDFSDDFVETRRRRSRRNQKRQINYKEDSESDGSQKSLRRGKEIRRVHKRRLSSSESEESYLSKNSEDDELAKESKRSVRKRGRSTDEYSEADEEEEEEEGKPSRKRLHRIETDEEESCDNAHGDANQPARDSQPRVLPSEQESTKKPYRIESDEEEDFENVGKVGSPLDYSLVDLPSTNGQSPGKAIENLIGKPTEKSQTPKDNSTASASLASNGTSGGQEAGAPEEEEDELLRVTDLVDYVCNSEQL
UniProt P04844: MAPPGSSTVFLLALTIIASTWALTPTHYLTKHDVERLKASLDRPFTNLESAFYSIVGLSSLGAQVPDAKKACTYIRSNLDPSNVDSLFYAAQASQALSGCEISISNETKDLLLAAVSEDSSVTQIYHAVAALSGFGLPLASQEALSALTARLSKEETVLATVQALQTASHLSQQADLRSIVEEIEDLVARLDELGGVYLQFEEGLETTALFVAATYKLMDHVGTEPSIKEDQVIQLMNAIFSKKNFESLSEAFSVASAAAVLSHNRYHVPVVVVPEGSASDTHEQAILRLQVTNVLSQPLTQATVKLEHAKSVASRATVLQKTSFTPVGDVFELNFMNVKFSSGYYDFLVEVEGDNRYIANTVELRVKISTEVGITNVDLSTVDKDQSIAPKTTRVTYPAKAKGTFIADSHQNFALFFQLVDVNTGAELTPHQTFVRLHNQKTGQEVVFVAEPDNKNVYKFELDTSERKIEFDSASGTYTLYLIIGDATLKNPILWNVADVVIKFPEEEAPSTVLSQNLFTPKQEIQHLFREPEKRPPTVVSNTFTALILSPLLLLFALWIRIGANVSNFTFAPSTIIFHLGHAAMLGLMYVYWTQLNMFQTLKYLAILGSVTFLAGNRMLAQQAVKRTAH

[2] = compound: CC1=C(SC2=C1C(=N[C@H](C3=NN=C(N32)C)CC(=O)N)C4=CC=C(C=C4)Cl)C
Outline: as §1

[3] = compound: CC1=C2C(=CC=C1)N=C(N(C2=O)C3=CC=CC=C3C)CN4C=NC5=C(N=CN=C54)N
Outline: as §1

[4] = compound: Cc1sc2c(c1C)C(c1ccc(Cl)cc1)=N[C@@H](CC(=O)OC(C)(C)C)c1nnc(C)n1-2
Outline: as §1

[5] = compound: c1ccc([C@@H]2C[C@H]2NC2CCNCC2)cc1
Outline: as §1

Measured: log2 fold change

RPL9 (UniProt P32969)
inactive: [1] 0.031 | [2] -0.009 | [3] 0.004 | [4] -0.015 | [5] 0.018

RPLP1 (UniProt P05386)
inactive: [1] 0.024 | [2] -0.01 | [3] -0.039 | [4] -0.008 | [5] -0.007

RPTOR (UniProt Q8N122)
inactive: [1] 0.015 | [2] -0.024 | [3] 0.035 | [4] -0.008 | [5] 0.04

RWDD2A (UniProt Q9UIY3)
inactive: [1] -0.126 | [2] 0.005 | [3] -0.116 | [4] 0.087 | [5] 0.152

RPRD2 (UniProt Q5VT52)
inactive: [1] -0.01 | [2] 0.161 | [3] 0.069 | [4] 0.002 | [5] -0.003

RRP7A (UniProt Q9Y3A4)
inactive: [1] 0.072 | [2] -0.032 | [3] 0.01 | [4] 0.143 | [5] -0.012

RSF1 (UniProt Q96T23)
inactive: [1] -0.03 | [2] 0.008 | [3] 0.173 | [4] -0.071 | [5] 0

RPL5 (UniProt P46777)
inactive: [1] 0.021 | [2] 0.006 | [3] -0.004 | [4] -0.008 | [5] -0.008

RPN2 (UniProt P04844)
inactive: [1] -0.001 | [2] -0.01 | [3] 0.01 | [4] -0.008 | [5] -0.009
